Test results as given in publication PMC11249646, “Small-Molecule Disruptors of the Interaction between Calcium- and Integrin-Binding Protein 1 and Integrin αIIbβ3 as Novel Antiplatelet Agents” (ACS Pharmacology & Translational Science, 2024).
Like-named read-outs stand apart in the source and are kept apart here.

Biological target: T1, CIB1 and αIIb interaction (CIB1-GST : F-αIIb peptide) (Homo sapiens, UniProt Q99828)
T1 construct: made in house; host or cells: BL-21 plus RIL cells (E. coli)
T1 sequence (Q99828 1-191): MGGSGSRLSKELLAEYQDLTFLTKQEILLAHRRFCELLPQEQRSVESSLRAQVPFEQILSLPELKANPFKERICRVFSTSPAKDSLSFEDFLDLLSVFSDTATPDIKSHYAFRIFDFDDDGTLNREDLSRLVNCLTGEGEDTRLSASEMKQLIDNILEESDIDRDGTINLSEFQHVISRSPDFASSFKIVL
Assay: FP assay, 1536-well qHTS format (primary and confirmatory screen)
Format: binding
Conditions: for Curve Class: negative sign = inhibitory curve

[1] = qHTS primary screen of LOPAC/NPACT libraries, negative = inhibition
[2] = qHTS primary screen of LOPAC/NPACT libraries
[3] = qHTS primary screen of LOPAC/NPACT libraries, read-out: IC50

| SMILES | Efficacy (%) [1] [%] | Curve Class [2] | IC50 [3] [µM] | Efficacy (%) | IC50 (IC50 [μM]) [µM] |
| --- | --- | --- | --- | --- | --- |
| Cl.Cl.OCCN1CCN(CCCN2c3ccccc3Sc3ccc(C(F)(F)F)cc32)CC1 [NCGC00261240-01] | -39 | -2.4 | 50.1 |  |  |
| CC/C(=C(\c1ccccc1)c1ccc(OCCN(C)C)cc1)c1ccccc1.O=C(O)CC(O)(CC(=O)O)C(=O)O [NCGC00024928-12] |  |  |  | -59 |  |
| CN1CCN(CCCN2c3ccccc3Sc3ccc(Cl)cc32)CC1.O=C(O)/C=C\C(=O)O.O=C(O)/C=C\C(=O)O [NCGC00261719-01] | -28 | -2.4 | 70.8 |  |  |
| O=C1NC(=O)C(c2ccccc2[N+](=O)[O-])=C1Nc1ccc(O)c(Cl)c1 [NCGC00261166-01] |  |  |  |  | 28.2 |
